Structures were worked out from names or drawings and are uncertain.
Target: STAT6 (Homo sapiens, UniProt P42226)
Experiment: Stat6 Degrader Assay (HiBiT based, HeLa LgBiT clone 4.14)
Details: read-out: STAT6 degradation DC50; HeLa LgBiT clone 4.14 HiBiT-STAT6, 4-24 h incubation; values given for compounds with >80% Emax; geometric mean
Description: This was a HiBit based assay. A HeLa cell line stably transfected with a small protein, LgBit (Large Bit) was obtained from Promega. These cells express endogenous STAT6. A small 11 amino acid gene sequence (HiBiT) was inserted in the STAT6 gene using CRISPR technology. Once STAT6 protein is expressed in the cells, the HiBiT sequence will bind the LgBit in the cells resulting in a functional NanoBiT protein, giving a luminescent tag to STAT6, see FIG. 2.
Single cell clones were prepared and the clone 4.14 was selected for the assay based on that clone showing high luminescence, high STAT6 phosphorylation upon stimulation with IL-4, and inhibition of luminescence when cells were treated with STAT6 siRNA.
HeLa LgBiT clone 4.14 cells were suspended in DMEM with 10% FCS, 1% Pen/Strep, Na-pyrovate and Hygromycin B, at a concentration of 1.25*105 cells pr mL. 5000 cells were added pr well of a 384 well plate and 20 nL of compound was added by Echo® liquid handler. NN6394A (terfenadine, a toxic compound) was added to control wells at 50 μM concentration to establish the assay window. In these wells the cells are dead which equals 100% degradation of STAT6. […]
The luminescence in the wells as a measure of non-degraded STAT6 was measured in a plate reader (BMG Pherastar FSX). […]

The chains behind the UniProt entries cited, without tags or fusion partners.
UniProt P42226, whole entry: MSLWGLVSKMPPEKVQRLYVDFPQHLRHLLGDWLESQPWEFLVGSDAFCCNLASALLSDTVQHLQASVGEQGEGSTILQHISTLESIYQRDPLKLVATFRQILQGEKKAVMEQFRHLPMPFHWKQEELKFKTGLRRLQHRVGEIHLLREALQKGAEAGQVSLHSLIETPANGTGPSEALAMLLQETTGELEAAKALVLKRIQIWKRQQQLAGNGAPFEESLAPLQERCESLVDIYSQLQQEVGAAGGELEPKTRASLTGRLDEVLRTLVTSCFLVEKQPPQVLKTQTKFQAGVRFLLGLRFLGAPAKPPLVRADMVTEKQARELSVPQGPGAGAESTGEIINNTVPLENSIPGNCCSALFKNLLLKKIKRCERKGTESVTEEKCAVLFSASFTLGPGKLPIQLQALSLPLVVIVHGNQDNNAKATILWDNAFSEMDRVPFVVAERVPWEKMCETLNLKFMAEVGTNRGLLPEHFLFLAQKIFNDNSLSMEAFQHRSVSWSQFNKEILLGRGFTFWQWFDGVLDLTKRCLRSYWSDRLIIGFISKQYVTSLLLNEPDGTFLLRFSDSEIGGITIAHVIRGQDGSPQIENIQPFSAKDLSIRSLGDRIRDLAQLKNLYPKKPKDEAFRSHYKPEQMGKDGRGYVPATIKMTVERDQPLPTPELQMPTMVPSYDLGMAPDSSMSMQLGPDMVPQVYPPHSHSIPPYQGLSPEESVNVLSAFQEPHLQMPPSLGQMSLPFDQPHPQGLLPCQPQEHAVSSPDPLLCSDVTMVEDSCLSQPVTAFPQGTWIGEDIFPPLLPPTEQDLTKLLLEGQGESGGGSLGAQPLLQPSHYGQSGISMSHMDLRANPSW

**Q.** How did the DC50 turn out when `Cc1cc(C(=O)N2CCC(CN3CCN(Cc4ccc5c(c4)C(C)(C)C(=O)N5C4CCC(=O)NC4=O)C[C@@H]3C)CC2)cc(F)c1C1=CCN([C@@H](C)c2cc3c(-n4ccc5c(c4=O)CCN5)ccnc3n2C)CC1` (stereo partly shown) was run?
**A.** 1.4 nM

From US20250320206A1, “STAT6 DEGRADERS” (Gilead Sciences, Inc., priority 2024, published 2025)
